No constants are given. Whether binding was seen depends on the method and setting. In cells and extracts the contact can be indirect. Some entries that bind do so weakly or less than the wild type.
Molecular target: MYC (human (endogenous in ESCC cell lines)) (UniProt P01106)
Experiment: co-IP; ESCC cell lysate in non-denaturing lysis buffer with protease inhibitors; incubated with anti-MYC or anti-ANXA2 antibody (rabbit or mouse IgG as control) at 4 °C overnight; Protein G agarose beads 4 h at 4 °C; washed with PBS; Western blot

Sequences of proteins named here, by UniProt entry; tags and fusion partners are left off.
UniProt P01106: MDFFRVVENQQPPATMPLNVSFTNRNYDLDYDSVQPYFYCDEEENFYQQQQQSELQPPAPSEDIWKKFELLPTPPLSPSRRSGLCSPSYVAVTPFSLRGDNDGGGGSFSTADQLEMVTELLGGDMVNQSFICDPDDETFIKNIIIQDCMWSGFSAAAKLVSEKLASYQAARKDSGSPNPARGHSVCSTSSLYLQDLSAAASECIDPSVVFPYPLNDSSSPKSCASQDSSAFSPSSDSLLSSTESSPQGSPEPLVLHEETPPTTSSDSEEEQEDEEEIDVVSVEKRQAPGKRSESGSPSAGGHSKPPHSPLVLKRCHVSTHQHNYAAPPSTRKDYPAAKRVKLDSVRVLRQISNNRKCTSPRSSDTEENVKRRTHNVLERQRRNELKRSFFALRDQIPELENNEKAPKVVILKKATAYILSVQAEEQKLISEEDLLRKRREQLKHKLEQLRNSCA
UniProt P07355: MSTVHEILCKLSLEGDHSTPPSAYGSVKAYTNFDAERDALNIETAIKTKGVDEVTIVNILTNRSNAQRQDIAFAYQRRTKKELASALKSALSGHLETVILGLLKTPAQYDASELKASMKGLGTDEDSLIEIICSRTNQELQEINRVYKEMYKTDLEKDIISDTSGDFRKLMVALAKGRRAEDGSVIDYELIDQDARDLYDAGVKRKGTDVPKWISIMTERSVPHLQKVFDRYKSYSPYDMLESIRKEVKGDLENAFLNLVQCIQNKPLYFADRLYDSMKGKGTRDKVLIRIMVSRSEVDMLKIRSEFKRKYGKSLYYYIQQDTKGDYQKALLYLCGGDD

binding: binds
Substance: ANXA2 (Annexin A2) (from UniProt P07355 1-339)
